Assay results reported in patent US8993320B2, “Culture method to obtain and maintain a pure or enriched population of mammalian neural stem cells and/or neural/progenitor cells that are prone to differentiate into oligodendrocyte-lineage cells in vitro” (priority 2011, dated 2015).
Some of these results come from one statement about several compounds together.

Test system: HFSC cells
Experiment: Expansion of HFSC cells with growth factors and supplements (live cell count)
Type: cell-based, human
Procedure: FIG. 4 illustrates the expansion rate of HFSC cells (cell line #2b) in the presence of different combinations of growth factors: (1): 20 ng/ml PDGF-AA+10 ng/ml bFGF; (2): 20 ng/ml PDGF-AA+10 ng/ml bFGF+5 ng/ml NT-3; (3): 20 ng/ml PDGF-AA+10 ng/ml bFGF+10 ng/ml IGF-1; (4): 20 ng/ml PDGF-AA+10 ng/ml bFGF+5 ng/ml NT-3+10 ng/ml IGF-1. The cells were harvested at day 11 of passage 3 (P3D11) and number of live cells in each condition was counted. Then, they were passaged in the same condition that was used at passage 3 at the same cell density. The cells were harvested at day 8 of passage 4 (P4D8) and number of live cells in each condition was counted (these cells were harvested before they became sub-confluent because they started forming spheres). […] Condition (3) was effective at both passages. FIG. 5 illustrates the effects of high dose of PDGF-AA (100 ng/ml) and 1-thioglycerol on the proliferation of HFSC cells (cell line #2b); cultured in HFSCM1 medium in the presence of the following combinations of growth factors: (1): 20 ng/ml PDGF-AA+10 ng/ml bFGF+10 ng/ml IGF-1; (2): 20 ng/ml PDGF-AA+10 ng/ml bFGF+10 ng/ml IGF-1+50 μM 1-thioglycerol; (3): 100 ng/ml PDGF-AA+10 ng/ml bFGF+10 ng/ml IGF-1; (4): 100 ng/ml PDGF-AA+10 ng/ml bFGF+10 ng/ml IGF-1+50 μM 1-thioglycerol; (5): 100 ng/ml PDGF-AA+10 ng/ml bFGF+50 μM 1-thioglycerol. The cells were harvested at day 7 of passage 5 (these cells were harvested before they became sub-confluent because they started forming spheres as they did at passage 4) and number of live cells in each condition was counted. The combination of 20 ng/ml PDGF-AA+10 ng/ml bFGF was also tested, but the recovered cell number was too low to evaluate (less than 1×10^4 cells which was under the countable range) and its data was eliminated from this figure. The condition (1) could expand cells at passage 3 but couldn't expand cells at passage 5. […] When the addition of 50 μM 1-thioglycerol and the increase of PDGF-AA concentration to 100 ng/ml were combined [condition (4)], the cell expansion rate improved dramatically and the cells could be expanded successfully. […] The cell “expansion rate” refers to the cell number on a particular date divided by the initial cell number at the start of culture. Human 15-week fetal spinal cord was dissected from the spinal column, with the meninges and peripheral nerves removed. The tissue then was dissociated with Accutase and washed and cells obtained from human fetal spinal cord were placed in a culture vessel containing the following growth medium: DMEM/F12 containing 2.5 mM glutamine and 15 mM HEPES, 2% B27 supplement (Invitrogen™), 1% NEAA, 1.5 mM pyruvate (Invitrogen™), 55 μM β-mercaptoethanol (Invitrogen™), 1 mM N-acetyl-L-cysteine (Sigma-Aldrich™), 20 ng/ml PDGF-AA (R&D SYSTEMS™, Inc., Minneapolis, Minn., USA) and 10 ng/ml bFGF (R&D SYSTEMS™). Cells were then placed in an incubator maintained at 37° C., 5% O2, and 5% CO2. bFGF (10 ng/ml) was added daily to the culture medium. Medium was changed every 2-3 days during passage. Based on the preliminary experiments, growing cells were not so many in the presence of PDGF-AA and bFGF and many cells stopped proliferating or died within a few weeks. […] To remove cells that are not responsive to PDGF-AA and bFGF, cells were cultured in an ultra-low adhesion culture plate ([…] Inc., Corning, N.Y., USA). […]

[1] = both 50 μM 1-thioglycerol and 100 ng/ml PDGF-AA, along with 10 ng/ml bFGF and 10 ng/ml IGF-1, passage 5

Row | Compound | expansion rate (50 μM 1-thioglycerol in the presence of 20 ng/ml PDGF-AA, 10 ng/ml bFGF and 10 ng/ml IGF-1, passage 5) | expansion rate [1] | expansion rate (20 ng/ml PDGF-AA with 10 ng/ml bFGF alone, cell line #2b, passage 3) | recovered cell number (20 ng/ml PDGF-AA+10 ng/ml bFGF, passage 5 day 7, under the countable range)
1 | OCC(O)CS (centres unmarked) [1-thioglycerol, reference compound] | < 1 | > 1 | – | –
2 | platelet derived growth factor-AA [PDGF-AA] | – | > 1 | < 1 | less than 1×10^4 cells
